Measurements taken from US20220087981A1.
These are yes or no findings as the source states them, for the method shown. Some entries that bind do so weakly or less than the wild type. Sequences can lack the tags named with a protein.

Assays:
[1] = target: T1, mouse CD47 on wild-type or QPCTL-reconstituted murine cells (B16F10, Ba/F3-Her2) (mouse) (UniProt Q61735); test: flow cytometry on WT and QPCTL-reconstituted B16F10 and Ba/F3-Her2 cells
T1 sequence (QPCTL-dependent pyroglutamate at the N-terminus, looked up): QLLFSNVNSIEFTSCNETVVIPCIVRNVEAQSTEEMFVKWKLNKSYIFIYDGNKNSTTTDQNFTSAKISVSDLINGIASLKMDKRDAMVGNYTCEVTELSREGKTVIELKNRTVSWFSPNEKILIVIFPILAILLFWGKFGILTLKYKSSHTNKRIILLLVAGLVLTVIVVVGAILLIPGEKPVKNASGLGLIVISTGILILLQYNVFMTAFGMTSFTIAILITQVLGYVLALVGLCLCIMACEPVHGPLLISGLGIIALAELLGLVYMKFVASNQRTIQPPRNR

[2] = target: T2, mouse CD47 on QPCTL knockout or SEN177-treated murine cells (B16F10, Ba/F3-Her2) (mouse) (UniProt Q61735); test: flow cytometric sorting of B16F10 cells transfected with sgRNA against murine QPCTL; low binding
T2 sequence (lacking the QPCTL-dependent N-terminal pyroglutamate, looked up): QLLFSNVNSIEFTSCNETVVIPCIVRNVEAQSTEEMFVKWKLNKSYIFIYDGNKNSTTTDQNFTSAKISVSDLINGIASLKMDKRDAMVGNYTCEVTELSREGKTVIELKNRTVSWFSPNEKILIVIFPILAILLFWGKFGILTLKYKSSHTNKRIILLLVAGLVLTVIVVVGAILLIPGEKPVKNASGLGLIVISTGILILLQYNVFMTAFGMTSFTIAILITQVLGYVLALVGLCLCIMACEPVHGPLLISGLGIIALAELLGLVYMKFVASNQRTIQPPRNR

[3] = target: T2, mouse CD47 on QPCTL knockout or SEN177-treated murine cells (B16F10, Ba/F3-Her2) (mouse); test: flow cytometry on QPCTL knockout B16F10 and Ba/F3-Her2 cells (likewise reduced after SEN177); weaker than on WT cells

Measured: binding

B1: recombinant mouse SIRP alpha/CD172a Fc Chimera Protein (R&D Systems) (Fc fusion, UniProt P97797 32-373, looked up, not shown: a dimerising Fc or GST)
chain: KELKVTQPEKSVSVAAGDSTVLNCTLTSLLPVGPIRWYRGVGPSRLLIYSFAGEYVPRIRNVSDTTKRNNMDFSIRISNVTPADAGIYYCVKFQKGSSEPDTEIQSGGGTEVYVLAKPSPPEVSGPADRGIPDQKVNFTCKSHGFSPRNITLKWFKDGQELHPLETTVNPSGKNVSYNISSTVRVVLNSMDVNSKVICEVAHITLDRSPLRGIANLSNFIRVSPTVKVTQQSPTSMNQVNLTCRAERFYPEDLQLIWLENGNVSRNDTPKNLTKNTDGTYNYTSLFLVNSSAHREDVVFTCQVKHDQQPAITRNHTVLGFAHSSDQGSMQTFPDNNATHNWN
binds: all assays above
